The record followed here is publication PMC10163001.

The chains behind the UniProt entries cited, without tags or fusion partners. Where a name states a change or a piece, a line headed by the entry shows the natural chain unless it says otherwise.
UniProt Q86VI4: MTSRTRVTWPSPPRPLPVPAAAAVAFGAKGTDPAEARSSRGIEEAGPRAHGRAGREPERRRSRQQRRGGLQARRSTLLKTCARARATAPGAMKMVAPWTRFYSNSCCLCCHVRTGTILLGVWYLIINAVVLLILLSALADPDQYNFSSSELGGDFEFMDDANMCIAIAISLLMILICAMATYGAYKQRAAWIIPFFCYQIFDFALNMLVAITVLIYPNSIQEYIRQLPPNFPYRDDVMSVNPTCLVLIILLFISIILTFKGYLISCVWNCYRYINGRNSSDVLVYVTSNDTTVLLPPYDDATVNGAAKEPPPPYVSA
UniProt P61586: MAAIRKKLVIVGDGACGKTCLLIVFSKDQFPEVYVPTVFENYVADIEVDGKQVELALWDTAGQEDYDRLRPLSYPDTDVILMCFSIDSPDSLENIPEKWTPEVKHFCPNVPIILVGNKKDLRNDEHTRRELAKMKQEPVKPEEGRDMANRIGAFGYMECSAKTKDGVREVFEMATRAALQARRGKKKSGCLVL

This assay has as its target HA-tagged LAPTM4B (Lysosome Associated Protein Transmembrane 4B) (UniProt Q86VI4). As to the kind of experiment: co-IP; immunoprecipitation with HA antibody from HA-tagged LAPTM4B stably expressing cells and control cells; blot with antibody against RhoA.

These are yes or no findings as the source states them, for the method shown. In cells and extracts the contact can be indirect. A result given as binding can be weak or reduced; the word gives no strength.

In the case of RhoA (from UniProt P61586 1-193), the binding result is “binds”.
